Test results taken from publication doi:10.1101/2025.10.24.684405.
No constants are given. Whether binding was seen depends on the method and setting. Binding can be weak; no strength is given. Tags and fused reporters may be left off the sequences shown.

The chains behind the UniProt entries cited, without tags or fusion partners. Where a name states a change or a piece, a line headed by the entry shows the natural chain unless it says otherwise.
UniProt Q2VPK5: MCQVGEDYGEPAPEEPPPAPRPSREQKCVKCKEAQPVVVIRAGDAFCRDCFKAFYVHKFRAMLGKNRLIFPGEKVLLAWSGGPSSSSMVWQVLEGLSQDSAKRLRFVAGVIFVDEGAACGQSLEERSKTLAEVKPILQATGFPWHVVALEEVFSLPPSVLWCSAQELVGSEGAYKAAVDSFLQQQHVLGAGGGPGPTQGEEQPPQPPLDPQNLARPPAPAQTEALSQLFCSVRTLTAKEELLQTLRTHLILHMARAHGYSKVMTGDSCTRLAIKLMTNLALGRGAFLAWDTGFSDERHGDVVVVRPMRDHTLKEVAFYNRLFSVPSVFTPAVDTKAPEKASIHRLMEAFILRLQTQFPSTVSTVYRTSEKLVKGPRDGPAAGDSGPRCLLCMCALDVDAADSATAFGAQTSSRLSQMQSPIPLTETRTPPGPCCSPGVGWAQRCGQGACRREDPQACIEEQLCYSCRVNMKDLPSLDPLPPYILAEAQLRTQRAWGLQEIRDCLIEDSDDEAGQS

Target: T1, human CTU1 (cytosolic thiouridylase 1), 6xHis and Twin-Strep tagged (human) (UniProt Q7Z7A3)
T1 sequence: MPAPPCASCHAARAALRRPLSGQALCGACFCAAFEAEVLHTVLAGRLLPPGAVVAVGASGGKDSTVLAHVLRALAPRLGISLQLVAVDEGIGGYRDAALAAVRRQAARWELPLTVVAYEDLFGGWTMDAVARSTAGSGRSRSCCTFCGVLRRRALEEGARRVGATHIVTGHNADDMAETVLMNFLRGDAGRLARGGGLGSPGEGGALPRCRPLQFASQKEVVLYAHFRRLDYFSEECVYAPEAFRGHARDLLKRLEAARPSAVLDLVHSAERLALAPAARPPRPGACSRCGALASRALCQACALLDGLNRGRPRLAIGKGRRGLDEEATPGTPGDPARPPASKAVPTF
Assay: SEC

binding: binds
Substance: human CTU2 K65A/R67A double mutant, 6xHis tagged (from UniProt Q2VPK5)
